The results are deposited in PubChem (AID1053133; Broad Institute, 2014).

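Vaccinia-infected cells with a two-color viral stage reporter; Venus fluorescence read on a plate reader; the cell line is not named here; timing not stated here. The test concentration is not given here. Percent change in Venus reporter signal; lower (more negative) values mean stronger inhibition of that viral stage.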

Values are in %. How 0% and 100% were set is not given here. Common to all entries: measured here: Venus reporter, other viral stage. Part of the compounds only, not a random draw; the main read-out is not listed here.

| # | SMILES | activity change (Venus) (%) |
|---|---|---|
| 1 | `C[C@H]1CCCCO[C@@H](CN(C)C(=O)CCC(F)(F)F)[C@@H](C)CN([C@@H](C)CO)C(=O)c2cc(NC(=O)NC3CCCCC3)ccc2O1` | -29.5 |
| 2 | `Cc1ccccc1-c1ccc([C@H]2[C@@H](CO)N3CCCCN(C(=O)Nc4ccc(F)cc4)C[C@H]23)cc1` | -70.05 |
| 3 | `C[C@@H]1CN([C@@H](C)CO)C(=O)c2c(c3ccccc3n2C)-c2ccccc2CO[C@@H]1CN(C)Cc1ccc(Oc2ccccc2)cc1` | -32.7 |
| 4 | `O=C(c1ccc(F)cc1)N1CCCCN2[C@@H](CO)[C@H](c3ccc(-c4ccccc4)cc3)[C@@H]2C1` | -40.81 |
| 5 | `N#Cc1ccc(-c2ccc([C@H]3[C@@H](CO)N4CCCCN(C(=O)Cc5ccccc5)C[C@H]34)cc2)cc1` | -32.37 |
| 6 | `COc1cccc(-c2ccc3c(c2)[C@H]2[C@H](CCN2S(=O)(=O)c2ccccc2C)[C@H](CO)N3C)c1` | -51.97 |
| 7 | `COCC#Cc1ccc([C@H]2[C@@H](CO)N3CCCCN(S(=O)(=O)c4ccccc4C)C[C@@H]23)cc1` | -31.17 |
| 8 | `COc1ccc(CN(C)C[C@@H]2OCCCC[C@@H](C)Oc3ccc(NC(=O)c4ccccc4)cc3C(=O)N([C@@H](C)CO)C[C@H]2C)cc1` | -31.26 |
| 9 | `O=C(NC1CCCC1)N1CC(=O)N2[C@H](CO)[C@@H](c3ccc(-c4ccc(F)cc4)cc3)[C@H]2C1` | -31.03 |
| 10 | `N#C[C@@H]1[C@H](c2ccccc2C2=CCCCC2)[C@H](CO)N1S(=O)(=O)c1cccc(F)c1` | -40.73 |
| 11 | `C[C@@H]1CN([C@H](C)CO)S(=O)(=O)c2ccc(/C=C/c3ccccc3)cc2O[C@@H]1CN(C)CC1CC1` | -23.89 |
| 12 | `C[C@@H]1CN([C@@H](C)CO)C(=O)Cc2cc(NC(=O)Cc3cn(C)c4ccccc34)ccc2O[C@H]1CN(C)Cc1ccc(Cl)c(Cl)c1` | -26.51 |
| 13 | `COc1ccc(S(=O)(=O)N2CCCCN3[C@H](CO)[C@H](c4ccc(C#CCC(C)C)cc4)[C@@H]3C2)cc1` | -56.23 |
| 14 | `C[C@H](CO)N1C[C@H](C)[C@H](CN(C)S(=O)(=O)c2ccc(Cl)cc2)OCCCC[C@H](C)Oc2ccc(NC(=O)Cc3ccccc3)cc2C1=O` | -26.14 |
| 15 | `Cc1noc(C)c1NC(=O)N(C)C[C@H]1Oc2cc(C#CCC3CCCC3)ccc2S(=O)(=O)N([C@H](C)CO)C[C@@H]1C` | -34.33 |
| 16 | `C[C@@H]1CCCCO[C@H](CN(C)Cc2ccccc2)[C@H](C)CN([C@@H](C)CO)C(=O)c2cc(NC(=O)C3CCCCC3)ccc2O1` | -45.38 |
| 17 | `CNC[C@@H]1Oc2cc(C#Cc3ccccc3OC)ccc2S(=O)(=O)N([C@H](C)CO)C[C@H]1C` | -40.84 |
| 18 | `Cc1ccc(-c2cnc3c(c2)C(=O)N([C@@H](C)CO)C[C@@H](C)[C@H](CN(C)CC2CCCCC2)O3)cc1` | -65.69 |
| 19 | `C[C@H](CO)N1C[C@H](C)[C@@H](CN(C)CC2CCCCC2)Oc2c(NC(=O)CCCCCC(=O)Nc3ccccc3N)cccc2C1=O` | -77.42 |
| 20 | `O=C(C[C@@H]1CC[C@@H]2[C@H](COC[C@H](O)CN2C(=O)Nc2ccc(Cl)c(Cl)c2)O1)NCc1ccccc1` | -28.93 |
| 21 | `C[C@H]1CCCCO[C@@H](CN(C)Cc2ccncc2)[C@@H](C)CN([C@@H](C)CO)C(=O)c2cc(NC(=O)Nc3ccc(C(F)(F)F)cc3)ccc2O1` | -57.18 |
| 22 | `COc1ccc(S(=O)(=O)Nc2ccc3c(c2)C(=O)N([C@H](C)CO)C[C@H](C)[C@H](CN(C)S(=O)(=O)c2ccc(Cl)cc2)OCCCC[C@H](C)O3)cc1` | -35.37 |
| 23 | `C[C@@H]1CCCCO[C@@H](CN(C)C(=O)C2CCCCC2)[C@H](C)CN([C@H](C)CO)C(=O)c2cc(NS(=O)(=O)c3ccc(F)cc3)ccc2O1` | -45.3 |
| 24 | `N#Cc1ccc(-c2ccc(C3[C@@H]4CN(C(=O)C5CCC5)C[C@H]3N4)cc2)cc1` (stereo partly shown) | -83.19 |
| 25 | `O=C(c1ccc(F)cc1)N1CCCCN2[C@@H](CO)[C@@H](c3ccc(-c4ccc(F)cc4)cc3)[C@@H]2C1` | -68.69 |
| 26 | `O=C(Cc1cccnc1)N1CCCCN2[C@H](CO)[C@H](c3ccc(C#CC4CCCC4)cc3)[C@@H]2C1` | -53.29 |
| 27 | `Cc1ccc(S(=O)(=O)N[C@@H]2CC[C@H](CC(=O)N3CCC(Cc4ccccc4)CC3)O[C@@H]2CO)cc1` | -30.43 |
| 28 | `C[C@H](CO)N1C[C@H](C)[C@@H](CN(C)C(=O)C2CCCCC2)Oc2cc(-c3ccc(F)cc3)ccc2S1(=O)=O` | -42.53 |
| 29 | `CC(C)NC(=O)Nc1cccc2c1O[C@H](CN(C)C(=O)Nc1cccc3ccccc13)[C@H](C)CN([C@@H](C)CO)C2=O` | -34.82 |
| 30 | `CO[C@H]1CN(C)C(=O)c2ccc(NC(=O)Nc3ccc(Cl)c(Cl)c3)cc2OC[C@H](C)NC[C@@H]1C` | -73.78 |
| 31 | `Cc1ccc(S(=O)(=O)Nc2ccc3c(c2)C(=O)N([C@@H](C)CO)C[C@@H](C)[C@@H](CN(C)S(=O)(=O)c2c(C)noc2C)OCCCC[C@@H](C)O3)cc1` | -59.45 |
| 32 | `CN(C)c1ccc2c(c1)[C@H]1C[C@@H](CC(=O)NCc3ccc(Oc4ccccc4)cc3)O[C@@H](CO)[C@H]1O2` | -24.97 |
| 33 | `CCCC#Cc1ccc([C@H]2[C@H](C#N)N(S(=O)(=O)c3cccc(F)c3)[C@H]2CO)cc1` | -33.02 |
| 34 | `C[C@H](CO)N1C[C@H](C)[C@H](CN(C)Cc2ccccc2)Oc2ccc(NC(=O)Nc3ccc(C(F)(F)F)cc3)cc2C1=O` | -35.56 |
| 35 | `Cc1ccc(S(=O)(=O)N(C)C[C@H]2OCCCC[C@@H](C)Oc3ccc(NS(=O)(=O)c4c(C)noc4C)cc3C(=O)N([C@@H](C)CO)C[C@H]2C)cc1` | -33.24 |
| 36 | `C[C@H](CO)N1C[C@H](C)[C@@H](CN(C)Cc2ccc(Cl)c(Cl)c2)Oc2ccc(NC(=O)Cc3ccccc3)cc2C1=O` | -31.69 |
| 37 | `C[C@@H]1CN([C@@H](C)CO)C(=O)c2c(c3ccccc3n2C)-c2ccccc2CO[C@@H]1CN(C)S(=O)(=O)c1ccc(F)cc1` | -50 |
| 38 | `COc1ccc(S(=O)(=O)N(C)C[C@H]2OCCCC[C@H](C)Oc3ccc(NS(=O)(=O)c4cccs4)cc3C(=O)N([C@H](C)CO)C[C@@H]2C)cc1` | -35.84 |
| 39 | `COc1cccc(S(=O)(=O)N(C)C[C@@H]2OCc3ccccc3-c3c(n(C)c4ccccc34)C(=O)N([C@@H](C)CO)C[C@@H]2C)c1` | -47.5 |
| 40 | `C[C@H](CO)N1C[C@H](C)[C@H](CN(C)Cc2ccc(C(F)(F)F)cc2)Oc2ccc(NC(=O)Nc3ccc(F)cc3)cc2CC1=O` | -29.23 |
| 41 | `COc1ccc(S(=O)(=O)Nc2ccc3c(c2)C(=O)N([C@H](C)CO)C[C@@H](C)[C@@H](CN(C)Cc2ccc4c(c2)OCO4)OCCCC[C@@H](C)O3)cc1` | -47.24 |
| 42 | `Cc1ccccc1-c1ccc2c(c1)O[C@H](CN(C)C(=O)Nc1ccc(C(F)(F)F)cc1)[C@H](C)CN([C@H](C)CO)S2(=O)=O` | -61.48 |
| 43 | `COc1ccc(C#Cc2ccc([C@@H]3[C@@H](CO)N4C(=O)CN(C(=O)Nc5ccccc5F)C[C@H]34)cc2)cc1` | -32.94 |
| 44 | `C[C@@H]1CCCCO[C@H](CN(C)Cc2ccc(C(F)(F)F)cc2)[C@H](C)CN([C@@H](C)CO)C(=O)c2cc(NS(=O)(=O)c3ccccc3)ccc2O1` | -61.38 |
| 45 | `O=C(C[C@@H]1CC[C@@H]2[C@H](COC[C@H](O)CN2CC2CCCCC2)O1)NCc1ccc(Cl)cc1` | -61.49 |
| 46 | `C[C@H]1CCCCO[C@@H](CN(C)Cc2ccc3c(c2)OCO3)[C@@H](C)CN([C@@H](C)CO)C(=O)c2cc(NC(=O)c3ccncc3)ccc2O1` | -40.18 |
| 47 | `O=C(C[C@@H]1CC[C@H]2[C@@H](COC[C@@H](O)CN2C(=O)c2ccccc2)O1)Nc1ccc(-c2ccccc2)cc1` | -31.68 |
| 48 | `CC(C)NC(=O)N1CCCCN2[C@@H](CO)[C@H](c3ccc(C#Cc4ccccc4F)cc3)[C@@H]2C1` | -57.37 |
| 49 | `C[C@@H]1CN([C@H](C)CO)C(=O)c2cccc(N(C)C)c2O[C@H]1CN(C)Cc1ccc(Cl)c(Cl)c1` | -31.11 |

The last 5 entries again:

{"smiles": "O=C(C[C@@H]1CC[C@@H]2[C@H](COC[C@H](O)CN2CC2CCCCC2)O1)NCc1ccc(Cl)cc1", "activity change (Venus) (%)": "-61.49"}
{"smiles": "C[C@H]1CCCCO[C@@H](CN(C)Cc2ccc3c(c2)OCO3)[C@@H](C)CN([C@@H](C)CO)C(=O)c2cc(NC(=O)c3ccncc3)ccc2O1", "activity change (Venus) (%)": "-40.18"}
{"smiles": "O=C(C[C@@H]1CC[C@H]2[C@@H](COC[C@@H](O)CN2C(=O)c2ccccc2)O1)Nc1ccc(-c2ccccc2)cc1", "activity change (Venus) (%)": "-31.68"}
{"smiles": "CC(C)NC(=O)N1CCCCN2[C@@H](CO)[C@H](c3ccc(C#Cc4ccccc4F)cc3)[C@@H]2C1", "activity change (Venus) (%)": "-57.37"}
{"smiles": "C[C@@H]1CN([C@H](C)CO)C(=O)c2cccc(N(C)C)c2O[C@H]1CN(C)Cc1ccc(Cl)c(Cl)c1", "activity change (Venus) (%)": "-31.11"}